± gives the standard deviation of the averaged measurements. The entries are a selection whose mix differs from that of the whole data set.
Compound: Nc1ncnc2c1ncn2[C@@H]1O[C@H](COP(=O)(O)OP(=O)(O)NP(=O)(O)O)[C@@H](O)[C@H]1O [adenylyl imidodiphosphate]
Test: NP40-soluble protein abundance relative to vehicle (solubility fold change) (ratio); higher = more soluble protein in presence of AMP-PNP
How it was run: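 In three independent experiments, Jurkat crude lysate made by Dounce homogenisation was treated for 10 min at room temperature and then 3 min at 37 °C with eight concentrations ranging from 0.1 to 10 mM. It was then solubilised with 0.8% NP40 plus benzonase for 60 min at 4 °C and ultracentrifuged. The supernatant was TMT-labelled for LC-MS/MS, and each value is the fold change against the detergent-processed vehicle for the same replicate, using vsn-normalised intensities.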

The chains behind the UniProt entries cited, without tags or fusion partners. Where a name states a change or a piece, a line headed by the entry shows the natural chain unless it says otherwise.
UniProt P04844: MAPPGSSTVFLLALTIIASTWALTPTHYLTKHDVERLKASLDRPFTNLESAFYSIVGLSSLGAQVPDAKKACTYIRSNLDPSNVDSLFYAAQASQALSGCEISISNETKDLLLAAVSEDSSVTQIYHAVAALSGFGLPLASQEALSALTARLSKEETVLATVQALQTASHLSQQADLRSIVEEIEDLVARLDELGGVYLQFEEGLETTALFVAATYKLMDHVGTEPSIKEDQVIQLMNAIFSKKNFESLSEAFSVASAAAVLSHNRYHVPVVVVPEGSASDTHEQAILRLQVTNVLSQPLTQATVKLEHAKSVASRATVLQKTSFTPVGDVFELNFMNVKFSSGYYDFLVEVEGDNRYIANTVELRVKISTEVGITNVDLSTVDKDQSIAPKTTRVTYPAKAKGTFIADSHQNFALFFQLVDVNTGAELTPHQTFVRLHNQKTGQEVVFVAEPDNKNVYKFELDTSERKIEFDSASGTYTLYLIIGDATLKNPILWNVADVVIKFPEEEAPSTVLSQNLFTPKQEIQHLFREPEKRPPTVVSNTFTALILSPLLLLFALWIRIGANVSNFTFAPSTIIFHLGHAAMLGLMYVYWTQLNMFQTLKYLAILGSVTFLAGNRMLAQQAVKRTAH
UniProt P05423: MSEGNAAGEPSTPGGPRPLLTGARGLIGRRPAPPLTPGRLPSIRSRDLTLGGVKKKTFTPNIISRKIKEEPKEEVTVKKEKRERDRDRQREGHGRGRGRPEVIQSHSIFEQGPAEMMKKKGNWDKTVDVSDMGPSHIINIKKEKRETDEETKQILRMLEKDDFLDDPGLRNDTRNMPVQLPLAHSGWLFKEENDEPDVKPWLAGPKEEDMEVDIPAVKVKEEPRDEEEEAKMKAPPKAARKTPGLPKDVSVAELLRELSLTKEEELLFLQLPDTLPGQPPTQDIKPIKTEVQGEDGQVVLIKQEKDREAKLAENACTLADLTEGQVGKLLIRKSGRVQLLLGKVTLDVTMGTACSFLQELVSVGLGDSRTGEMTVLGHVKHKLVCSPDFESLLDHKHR
UniProt P06132: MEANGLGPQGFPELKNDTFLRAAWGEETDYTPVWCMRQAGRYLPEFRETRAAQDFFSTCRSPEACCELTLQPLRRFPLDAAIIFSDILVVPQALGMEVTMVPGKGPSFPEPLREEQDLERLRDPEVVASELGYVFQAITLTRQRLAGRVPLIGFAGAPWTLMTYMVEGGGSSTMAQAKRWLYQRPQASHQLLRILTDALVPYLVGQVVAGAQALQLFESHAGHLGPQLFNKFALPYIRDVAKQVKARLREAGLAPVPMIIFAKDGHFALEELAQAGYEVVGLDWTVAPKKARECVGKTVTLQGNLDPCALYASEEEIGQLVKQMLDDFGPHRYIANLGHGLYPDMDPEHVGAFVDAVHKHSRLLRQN
UniProt P04075: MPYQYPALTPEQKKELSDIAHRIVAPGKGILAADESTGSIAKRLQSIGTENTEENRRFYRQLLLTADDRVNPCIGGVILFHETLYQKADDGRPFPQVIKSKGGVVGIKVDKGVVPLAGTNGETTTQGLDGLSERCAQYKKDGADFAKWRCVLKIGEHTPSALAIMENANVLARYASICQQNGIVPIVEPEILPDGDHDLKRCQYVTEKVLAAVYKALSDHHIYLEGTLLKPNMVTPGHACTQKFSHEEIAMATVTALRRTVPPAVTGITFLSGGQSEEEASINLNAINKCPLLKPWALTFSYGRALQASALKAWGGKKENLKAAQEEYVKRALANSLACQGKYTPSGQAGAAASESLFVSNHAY
UniProt P10636, whole entry: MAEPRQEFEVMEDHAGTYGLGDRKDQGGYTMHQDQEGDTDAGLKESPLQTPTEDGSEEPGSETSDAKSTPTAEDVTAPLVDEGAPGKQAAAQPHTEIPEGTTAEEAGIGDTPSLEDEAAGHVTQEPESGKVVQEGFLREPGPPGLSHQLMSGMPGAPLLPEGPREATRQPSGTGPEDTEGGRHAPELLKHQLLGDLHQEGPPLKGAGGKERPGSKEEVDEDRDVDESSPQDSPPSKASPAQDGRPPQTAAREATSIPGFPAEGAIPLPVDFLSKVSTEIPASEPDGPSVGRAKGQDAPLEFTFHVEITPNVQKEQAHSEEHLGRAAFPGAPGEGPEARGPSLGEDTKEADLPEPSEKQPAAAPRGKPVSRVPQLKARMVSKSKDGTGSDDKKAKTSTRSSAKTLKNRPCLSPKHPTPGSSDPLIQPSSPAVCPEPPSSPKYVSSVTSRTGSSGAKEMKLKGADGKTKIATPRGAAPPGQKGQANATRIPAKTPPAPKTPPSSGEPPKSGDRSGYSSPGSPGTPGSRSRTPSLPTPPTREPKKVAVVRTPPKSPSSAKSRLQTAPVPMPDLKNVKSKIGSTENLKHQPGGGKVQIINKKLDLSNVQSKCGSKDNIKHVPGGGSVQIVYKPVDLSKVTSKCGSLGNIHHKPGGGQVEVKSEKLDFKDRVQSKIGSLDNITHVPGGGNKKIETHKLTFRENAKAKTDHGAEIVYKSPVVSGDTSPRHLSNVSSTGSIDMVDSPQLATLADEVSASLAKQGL
UniProt O95782: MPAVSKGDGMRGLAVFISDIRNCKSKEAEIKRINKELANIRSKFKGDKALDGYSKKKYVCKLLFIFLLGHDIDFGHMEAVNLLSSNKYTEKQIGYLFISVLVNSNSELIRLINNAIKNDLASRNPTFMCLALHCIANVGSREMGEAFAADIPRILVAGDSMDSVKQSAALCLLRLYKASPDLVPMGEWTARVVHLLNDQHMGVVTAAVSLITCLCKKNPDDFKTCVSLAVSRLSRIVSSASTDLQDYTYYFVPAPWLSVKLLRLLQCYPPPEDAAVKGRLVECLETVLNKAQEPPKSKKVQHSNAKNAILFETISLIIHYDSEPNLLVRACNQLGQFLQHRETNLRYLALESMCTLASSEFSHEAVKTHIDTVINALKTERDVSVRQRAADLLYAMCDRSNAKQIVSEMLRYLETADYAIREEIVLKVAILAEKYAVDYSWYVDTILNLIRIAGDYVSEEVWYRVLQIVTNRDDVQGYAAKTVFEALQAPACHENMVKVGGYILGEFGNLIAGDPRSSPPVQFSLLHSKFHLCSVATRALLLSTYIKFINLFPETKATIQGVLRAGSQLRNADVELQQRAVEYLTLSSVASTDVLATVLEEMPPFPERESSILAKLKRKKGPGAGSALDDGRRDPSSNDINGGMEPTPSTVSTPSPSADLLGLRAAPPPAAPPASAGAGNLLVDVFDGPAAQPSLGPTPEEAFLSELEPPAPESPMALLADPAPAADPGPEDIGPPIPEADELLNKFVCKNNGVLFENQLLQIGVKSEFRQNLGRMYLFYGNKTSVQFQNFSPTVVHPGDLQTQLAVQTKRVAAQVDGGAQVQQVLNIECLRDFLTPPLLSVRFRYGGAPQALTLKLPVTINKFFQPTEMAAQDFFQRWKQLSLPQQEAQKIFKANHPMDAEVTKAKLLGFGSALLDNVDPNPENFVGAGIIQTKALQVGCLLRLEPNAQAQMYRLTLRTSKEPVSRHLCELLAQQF
UniProt O95786: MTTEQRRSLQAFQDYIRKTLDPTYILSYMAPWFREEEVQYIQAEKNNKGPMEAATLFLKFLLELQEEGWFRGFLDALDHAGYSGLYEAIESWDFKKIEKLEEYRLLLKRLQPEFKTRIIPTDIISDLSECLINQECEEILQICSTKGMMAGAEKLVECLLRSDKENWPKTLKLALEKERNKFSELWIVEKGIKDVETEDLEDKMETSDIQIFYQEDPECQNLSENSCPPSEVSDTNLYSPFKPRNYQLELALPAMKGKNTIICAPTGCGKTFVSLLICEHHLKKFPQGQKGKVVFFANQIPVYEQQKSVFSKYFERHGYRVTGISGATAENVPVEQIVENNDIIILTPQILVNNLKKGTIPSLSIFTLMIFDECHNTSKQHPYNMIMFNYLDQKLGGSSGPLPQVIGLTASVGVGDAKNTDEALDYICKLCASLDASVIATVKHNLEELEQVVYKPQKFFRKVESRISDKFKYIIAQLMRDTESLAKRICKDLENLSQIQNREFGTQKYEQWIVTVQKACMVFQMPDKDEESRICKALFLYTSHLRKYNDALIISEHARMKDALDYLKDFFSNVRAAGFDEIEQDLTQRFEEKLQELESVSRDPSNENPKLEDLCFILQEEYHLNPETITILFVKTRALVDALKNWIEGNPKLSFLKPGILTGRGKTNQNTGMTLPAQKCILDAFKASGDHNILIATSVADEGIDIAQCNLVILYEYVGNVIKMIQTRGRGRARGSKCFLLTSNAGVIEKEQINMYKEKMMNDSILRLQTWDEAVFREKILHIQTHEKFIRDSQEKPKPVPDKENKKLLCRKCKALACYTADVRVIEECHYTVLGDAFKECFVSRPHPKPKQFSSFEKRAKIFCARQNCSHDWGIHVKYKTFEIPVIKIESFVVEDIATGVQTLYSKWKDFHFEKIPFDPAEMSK
UniProt P08311: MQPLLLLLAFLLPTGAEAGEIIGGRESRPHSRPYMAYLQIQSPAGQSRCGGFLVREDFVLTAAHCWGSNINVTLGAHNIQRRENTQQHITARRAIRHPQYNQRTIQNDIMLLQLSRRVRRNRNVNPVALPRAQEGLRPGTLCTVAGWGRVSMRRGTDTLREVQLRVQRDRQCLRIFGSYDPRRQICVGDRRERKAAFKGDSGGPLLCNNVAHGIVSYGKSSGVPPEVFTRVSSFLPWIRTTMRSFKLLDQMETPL
UniProt P07741: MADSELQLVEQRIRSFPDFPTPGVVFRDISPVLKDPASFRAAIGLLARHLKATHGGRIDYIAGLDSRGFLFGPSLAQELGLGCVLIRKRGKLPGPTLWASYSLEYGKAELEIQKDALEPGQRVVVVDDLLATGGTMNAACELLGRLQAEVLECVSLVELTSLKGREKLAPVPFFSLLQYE
UniProt P10074: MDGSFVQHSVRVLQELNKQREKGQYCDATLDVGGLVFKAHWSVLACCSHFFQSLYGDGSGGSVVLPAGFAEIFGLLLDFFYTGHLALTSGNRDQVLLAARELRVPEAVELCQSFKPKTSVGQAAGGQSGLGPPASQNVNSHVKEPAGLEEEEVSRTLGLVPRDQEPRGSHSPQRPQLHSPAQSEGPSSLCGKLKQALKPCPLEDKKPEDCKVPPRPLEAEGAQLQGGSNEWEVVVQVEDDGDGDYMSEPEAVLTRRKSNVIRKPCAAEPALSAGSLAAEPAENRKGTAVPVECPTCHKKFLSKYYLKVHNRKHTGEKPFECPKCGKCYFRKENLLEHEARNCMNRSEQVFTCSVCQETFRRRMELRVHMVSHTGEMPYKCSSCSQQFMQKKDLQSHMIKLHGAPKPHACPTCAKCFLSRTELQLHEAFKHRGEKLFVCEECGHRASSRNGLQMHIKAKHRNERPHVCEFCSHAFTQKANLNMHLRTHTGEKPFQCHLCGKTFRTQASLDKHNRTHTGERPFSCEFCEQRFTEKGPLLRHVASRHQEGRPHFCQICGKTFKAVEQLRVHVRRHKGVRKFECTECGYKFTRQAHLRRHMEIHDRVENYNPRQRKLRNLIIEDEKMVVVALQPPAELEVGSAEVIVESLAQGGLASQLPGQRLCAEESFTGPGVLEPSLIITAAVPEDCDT
UniProt P13196: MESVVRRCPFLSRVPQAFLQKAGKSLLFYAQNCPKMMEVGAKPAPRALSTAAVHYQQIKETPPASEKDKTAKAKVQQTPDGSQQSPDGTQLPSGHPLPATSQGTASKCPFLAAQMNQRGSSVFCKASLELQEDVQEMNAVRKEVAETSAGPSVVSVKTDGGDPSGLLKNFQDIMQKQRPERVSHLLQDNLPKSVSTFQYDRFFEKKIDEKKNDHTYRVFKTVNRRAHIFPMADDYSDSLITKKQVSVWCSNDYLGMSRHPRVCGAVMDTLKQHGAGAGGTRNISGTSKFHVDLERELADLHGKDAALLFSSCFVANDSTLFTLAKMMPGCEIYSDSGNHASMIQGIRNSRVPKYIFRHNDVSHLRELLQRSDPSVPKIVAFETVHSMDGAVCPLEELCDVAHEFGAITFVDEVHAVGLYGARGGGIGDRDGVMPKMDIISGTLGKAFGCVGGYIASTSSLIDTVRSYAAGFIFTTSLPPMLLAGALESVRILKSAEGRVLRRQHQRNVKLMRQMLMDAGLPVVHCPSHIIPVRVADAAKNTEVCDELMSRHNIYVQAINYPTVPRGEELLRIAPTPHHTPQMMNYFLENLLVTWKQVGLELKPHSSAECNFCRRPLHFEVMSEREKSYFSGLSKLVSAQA
UniProt P07311: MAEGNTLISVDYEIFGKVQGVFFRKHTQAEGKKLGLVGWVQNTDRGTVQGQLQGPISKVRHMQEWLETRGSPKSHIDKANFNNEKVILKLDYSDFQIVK
UniProt P06753, whole entry: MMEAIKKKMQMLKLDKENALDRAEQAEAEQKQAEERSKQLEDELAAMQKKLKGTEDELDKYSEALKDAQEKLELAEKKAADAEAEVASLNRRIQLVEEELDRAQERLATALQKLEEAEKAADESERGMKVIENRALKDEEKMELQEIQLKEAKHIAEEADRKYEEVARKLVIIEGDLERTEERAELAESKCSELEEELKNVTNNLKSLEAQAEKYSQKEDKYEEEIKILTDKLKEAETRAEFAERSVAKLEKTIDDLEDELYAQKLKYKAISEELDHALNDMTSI

Target	NP40-soluble protein abundance (concentration: 1mM)	NP40-soluble protein abundance (concentration: 2mM)	NP40-soluble protein abundance (concentration: 4mM)	NP40-soluble protein abundance (concentration: 6mM)	NP40-soluble protein abundance (concentration: 8mM)	NP40-soluble protein abundance (concentration: 10mM)
COX6B1 (UniProt P14854)	0.864 ± 0.041	0.926 ± 0.032	0.916 ± 0.063	0.86 ± 0.055	0.821 ± 0.016	0.839 ± 0.019
UniProt P04844 and related entries	0.962 ± 0.029	0.867 ± 0.076	0.925 ± 0.033	0.954 ± 0.031	0.964 ± 0.025	0.906 ± 0.021
UniProt P10155	0.957 ± 0.057	0.909 ± 0.019	0.95 ± 0.026	0.953 ± 0.056	0.979 ± 0.03	0.946 ± 0.021
UniProt P13929 and related entries	1 ± 0.041	0.9809 ± 0.0084	1.01 ± 0.076	1.06 ± 0.064	1.05 ± 0.041	1.05 ± 0.033
UniProt P01116-2	1.03 ± 0.04	1.05 ± 0.028	1.02 ± 0.022	0.9797 ± 0.0054	0.992 ± 0.015	0.974 ± 0.015
UniProt P05023 and related entries	1.05 ± 0.052	1.06 ± 0.021	1.03 ± 0.037	0.995 ± 0.053	0.993 ± 0.068	0.98 ± 0.053
POLR3D (UniProt P05423)	0.982 ± 0.017	1.01 ± 0.02	0.993 ± 0.035	0.961 ± 0.041	0.971 ± 0.037	0.998 ± 0.065
PCNA (UniProt P12004)	1.008 ± 0.0098	0.998 ± 0.012	0.957 ± 0.012	0.973 ± 0.015	0.951 ± 0.018	0.935 ± 0.024
UROD (UniProt P06132)	1.01 ± 0.02	0.992 ± 0.044	1.01 ± 0.043	0.947 ± 0.042	0.967 ± 0.015	0.939 ± 0.044
UniProt P04075 and related entries	1.01 ± 0.033	1.02 ± 0.03	1 ± 0.032	1.07 ± 0.035	1.04 ± 0.019	1.086 ± 0.0049
BAG2 (UniProt O95816)	1.09 ± 0.059	1.07 ± 0.095	1.02 ± 0.061	1 ± 0.07	0.967 ± 0.082	0.925 ± 0.067
UniProt P05771 and related entries	1.05 ± 0.019	1.03 ± 0.016	1.04 ± 0.029	1.04 ± 0.012	1.05 ± 0.017	1.04 ± 0.03
COX4I1 (UniProt P13073)	0.984 ± 0.019	1.03 ± 0.039	0.99 ± 0.021	0.984 ± 0.03	0.988 ± 0.018	0.958 ± 0.057
UniProt P06396-2	1.05 ± 0.03	1.07 ± 0.045	1.0378 ± 0.00018	1.04 ± 0.041	1.0267 ± 0.00077	1.07 ± 0.062
UniProt P10636-2|P10636-4|P10636-7|P10636-9|P10636-6	1.02 ± 0.013	1.12 ± 0.088	1.04 ± 0.075	1 ± 0.039	0.979 ± 0.053	1.01 ± 0.093
ANXA3 (UniProt P12429)	1.01 ± 0.035	1 ± 0.025	0.995 ± 0.027	1.01 ± 0.029	1.01 ± 0.019	0.993 ± 0.026
P0DN76 and related entries (UniProt Q01081+P0DN76)	1.04 ± 0.065	1.06 ± 0.083	1.12 ± 0.05	1.29 ± 0.099	1.47 ± 0.18	1.51 ± 0.18
UniProt P15927 and related entries	0.987 ± 0.013	1.03 ± 0.035	0.988 ± 0.017	1.01 ± 0.015	0.983 ± 0.03	1.02 ± 0.017
RPLP2 (UniProt P05387)	1 ± 0.054	0.979 ± 0.034	0.925 ± 0.064	0.914 ± 0.056	0.853 ± 0.028	0.925 ± 0.076
AKR1B1 (UniProt P15121)	0.953 ± 0.046	0.867 ± 0.065	0.921 ± 0.038	0.999 ± 0.084	1.02 ± 0.046	0.946 ± 0.037

Looked up one by one from the list above (5):
Target	NP40-soluble protein abundance (concentration: 1mM)	NP40-soluble protein abundance (concentration: 2mM)	NP40-soluble protein abundance (concentration: 4mM)	NP40-soluble protein abundance (concentration: 6mM)	NP40-soluble protein abundance (concentration: 8mM)	NP40-soluble protein abundance (concentration: 10mM)
UniProt P06396-2	1.05 ± 0.03	1.07 ± 0.045	1.0378 ± 0.00018	1.04 ± 0.041	1.0267 ± 0.00077	1.07 ± 0.062
UniProt P10636-2|P10636-4|P10636-7|P10636-9|P10636-6	1.02 ± 0.013	1.12 ± 0.088	1.04 ± 0.075	1 ± 0.039	0.979 ± 0.053	1.01 ± 0.093
UniProt P01116-2	1.03 ± 0.04	1.05 ± 0.028	1.02 ± 0.022	0.9797 ± 0.0054	0.992 ± 0.015	0.974 ± 0.015
RPLP2 (UniProt P05387)	1 ± 0.054	0.979 ± 0.034	0.925 ± 0.064	0.914 ± 0.056	0.853 ± 0.028	0.925 ± 0.076
UniProt P10155	0.957 ± 0.057	0.909 ± 0.019	0.95 ± 0.026	0.953 ± 0.056	0.979 ± 0.03	0.946 ± 0.021

Following part:

Target	NP40-soluble protein abundance (concentration: 1mM)	NP40-soluble protein abundance (concentration: 2mM)	NP40-soluble protein abundance (concentration: 4mM)	NP40-soluble protein abundance (concentration: 6mM)	NP40-soluble protein abundance (concentration: 8mM)	NP40-soluble protein abundance (concentration: 10mM)
UniProt O95782 and related entries	0.994 ± 0.03	0.953 ± 0.058	1.07 ± 0.046	1.09 ± 0.044	1.13 ± 0.021	1.13 ± 0.056
UniProt O95786 and related entries	0.996 ± 0.051	0.944 ± 0.035	0.978 ± 0.022	0.942 ± 0.017	0.967 ± 0.021	0.933 ± 0.029
LAMP1 (UniProt P11279)	1.03 ± 0.059	1.08 ± 0.019	0.985 ± 0.051	1.03 ± 0.06	0.987 ± 0.035	1.03 ± 0.095
STMN1 (UniProt P16949)	0.982 ± 0.036	1.02 ± 0.042	0.906 ± 0.062	0.901 ± 0.011	0.858 ± 0.018	0.853 ± 0.072
UniProt O96017 and related entries	0.948 ± 0.042	0.881 ± 0.069	0.915 ± 0.031	0.929 ± 0.014	0.937 ± 0.012	0.892 ± 0.014
CAT (UniProt P04040)	1.01 ± 0.014	0.958 ± 0.04	0.976 ± 0.015	0.956 ± 0.02	0.97 ± 0.029	0.936 ± 0.016
UniProt P06730 and related entries	1.08 ± 0.029	1.05 ± 0.024	1.1 ± 0.046	1.06 ± 0.036	1.12 ± 0.07	1.07 ± 0.029
SRP19 (UniProt P09132)	1.03 ± 0.054	1.15 ± 0.17	1.08 ± 0.055	1.11 ± 0.071	1.08 ± 0.021	1.21 ± 0.034
RPN1 (UniProt P04843)	1 ± 0.015	0.959 ± 0.032	0.942 ± 0.021	0.951 ± 0.042	0.937 ± 0.028	0.927 ± 0.039
UniProt P14859 and related entries	1.06 ± 0.033	1.13 ± 0.16	1.04 ± 0.066	1.04 ± 0.026	1 ± 0.054	1.04 ± 0.045
ACADS (UniProt P16219)	0.988 ± 0.035	0.924 ± 0.068	0.9786 ± 0.0077	0.974 ± 0.029	0.999 ± 0.016	0.945 ± 0.016
SYF2 (UniProt O95926)	1.01 ± 0.013	1.06 ± 0.085	1.07 ± 0.028	1.03 ± 0.058	1.08 ± 0.058	1.12 ± 0.063
LATS1 (UniProt O95835)	1.03 ± 0.041	1.01 ± 0.037	1.01 ± 0.032	1 ± 0.0023	1.03 ± 0.034	1.02 ± 0.036
CTSG (UniProt P08311)	1.0006 ± 0.00035	0.9967 ± 0.0072	0.971 ± 0.0081	1 ± 0.011	1.007 ± 0.01	0.977 ± 0.021
P0CG12 and related entries (UniProt P0CG13)	0.9562 ± 0.0082	0.9635 ± 0.0031	0.976 ± 0.033	1.04 ± 0.066	1.02 ± 0.069	0.9954 ± 0.0088
UniProt P11498 and related entries	1.027 ± 0.0052	0.985 ± 0.063	1.02 ± 0.016	0.9804 ± 0.0035	0.984 ± 0.011	0.965 ± 0.027
UniProt P00519 and related entries	1.03 ± 0.034	1.07 ± 0.023	1.07 ± 0.035	1.06 ± 0.056	1.06 ± 0.035	1.11 ± 0.027
APRT (UniProt P07741)	0.901 ± 0.085	0.787 ± 0.025	0.948 ± 0.12	1.12 ± 0.23	1.13 ± 0.27	1.07 ± 0.21
PLEK (UniProt P08567)	1.052 ± 0.0013	0.996 ± 0.01	1.02 ± 0.014	1.02 ± 0.017	1.04 ± 0.097	1.08 ± 0.066
PRPS2 (UniProt P11908)	0.88 ± 0.064	0.797 ± 0.088	0.829 ± 0.066	0.837 ± 0.082	0.852 ± 0.035	0.814 ± 0.11

Target	NP40-soluble protein abundance (concentration: 1mM)	NP40-soluble protein abundance (concentration: 2mM)	NP40-soluble protein abundance (concentration: 4mM)	NP40-soluble protein abundance (concentration: 6mM)	NP40-soluble protein abundance (concentration: 8mM)	NP40-soluble protein abundance (concentration: 10mM)
UniProt P13861 and related entries	0.989 ± 0.02	0.961 ± 0.037	0.971 ± 0.031	0.976 ± 0.035	0.949 ± 0.025	0.951 ± 0.036
UniProt P14618 and related entries	1.02 ± 0.077	0.854 ± 0.066	0.994 ± 0.073	0.888 ± 0.091	0.988 ± 0.034	0.875 ± 0.092
ETS1 (UniProt P14921)	1.01 ± 0.043	0.995 ± 0.063	0.987 ± 0.038	0.96 ± 0.05	0.951 ± 0.042	0.933 ± 0.054
UCHL3 (UniProt P15374)	1.06 ± 0.013	1.05 ± 0.017	1.04 ± 0.025	1.01 ± 0.0052	1.02 ± 0.012	0.988 ± 0.038
ASS1 (UniProt P00966)	1.02 ± 0.059	0.923 ± 0.1	0.966 ± 0.04	0.961 ± 0.029	0.963 ± 0.023	0.939 ± 0.037
UniProt P09693	1 ± 0.045	1.03 ± 0.1	0.979 ± 0.058	1 ± 0.025	0.997 ± 0.051	0.998 ± 0.018
NCK1 (UniProt P16333)	0.991 ± 0.016	0.961 ± 0.038	1.06 ± 0.016	1.05 ± 0.047	1.02 ± 0.035	1.01 ± 0.035
ZBTB48 (UniProt P10074)	0.981 ± 0.021	0.976 ± 0.012	0.952 ± 0.034	0.944 ± 0.058	0.92 ± 0.031	0.913 ± 0.061
HCLS1 (UniProt P14317)	1.03 ± 0.019	1.09 ± 0.073	1 ± 0.025	1.01 ± 0.028	0.967 ± 0.012	0.994 ± 0.052
MTHFD2 (UniProt P13995)	1.06 ± 0.013	1.06 ± 0.012	1.06 ± 0.029	1.03 ± 0.033	1.05 ± 0.012	1.03 ± 0.04
UniProt P14543	0.862 ± 0.086	0.769 ± 0.13	0.815 ± 0.1	0.867 ± 0.073	0.855 ± 0.05	0.849 ± 0.12
UniProt P06576 and related entries	1.03 ± 0.059	1.02 ± 0.036	1.01 ± 0.032	0.965 ± 0.077	0.951 ± 0.057	0.985 ± 0.076
UniProt P16591 and related entries	0.966 ± 0.056	0.904 ± 0.12	0.913 ± 0.078	0.878 ± 0.093	0.857 ± 0.093	0.821 ± 0.1
ALAS1 (UniProt P13196)	0.966 ± 0.04	0.99 ± 0.037	0.969 ± 0.045	0.975 ± 0.053	0.973 ± 0.029	0.981 ± 0.063
UniProt P08236 and related entries	0.95 ± 0.025	0.934 ± 0.019	0.997 ± 0.07	1.01 ± 0.046	1.03 ± 0.032	1.01 ± 0.067
UniProt P05026 and related entries	1.05 ± 0.042	1.09 ± 0.091	1.04 ± 0.021	1.07 ± 0.028	1.04 ± 0.029	1.09 ± 0.043
UniProt P07311 and related entries	0.994 ± 0.064	1.01 ± 0.1	1.06 ± 0.099	1.2 ± 0.16	1.2 ± 0.085	1.26 ± 0.068
GALT (UniProt P07902)	1.01 ± 0.041	1.04 ± 0.034	1.01 ± 0.033	1 ± 0.034	0.995 ± 0.044	1.01 ± 0.058
IGF2R (UniProt P11717)	0.999 ± 0.035	1.05 ± 0.093	0.998 ± 0.048	1.06 ± 0.029	1.04 ± 0.029	1.07 ± 0.068
UniProt P06753-2|P06753-3|P06753-5|P06753-6|J3KN67	1.14 ± 0.11	1.28 ± 0.2	1.19 ± 0.21	1.25 ± 0.23	1.21 ± 0.12	1.07 ± 0.14

From the supplement of paper PMC6411743
